Reference: PubChem BioAssay AID504467 (National Center for Advancing Translational Sciences (NCATS), 2011)
Out of some 330,000 compounds screened, about 7,700 (2.3%) were called active. The inconclusive results got no clear call from the source; some entries with a clear call stand among them for comparison. The call rests on the fitted dose curve; in most records, active means well fitted inhibition curve with a large enough effect; inconclusive means small, poorly fitted or top-dose-only effect, or effect the other way; inactive means flat fitted curve, though single readings scatter. Potencies beside an inconclusive call are fits to weak or partial responses and may not hold up.

Test: qHTS screen for small molecules that inhibit ELG1-dependent DNA repair in human embryonic kidney (HEK293T) cells expressing luciferase-tagged ELG1; further: nearly all actives have a fitted effect of over 55% in size
Conditions: HEK293T ELG1-luciferase reporter, luminescence, 16 h, DNA damage induced by 5-fluorouridine; series mostly up to 46.1 µM
Outline: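 DMSO vehicle served as the neutral condition. Each well held 2,000 cells given 5-fluorouridine plus compound; after 16 hr at 37 °C/5% CO2, ONE-Glo was added and luciferase measured 30 min later.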
Potency means the concentration at half of the fitted maximal effect.

| SMILES | Potency |
| --- | --- |
| CC(C(Sc1ccccc1N)c1ccccc1)[N+](=O)[O-] (centres undefined) | inconclusive: 14.6 µM [activator, partial curve] |
| COc1cc(C(=O)NNC(=O)c2cc(S(=O)(=O)N(C)C)ccc2N2CCCC2)cc(OC)c1OC | inconclusive: 20.6 µM [inhibitor, single point] |
| CCOc1ccc(C(=O)O/N=C(\N)c2ccccn2)cc1 | inconclusive: 0.231 µM [activator, partial curve] |
| O=C1OCCN1C(=O)[C@H]1[C@H](c2ccc(Cl)cc2)C(c2ccc(F)cc2)=NN1c1ccc(Br)cc1 | inconclusive: 18.3 µM [inhibitor, single point] |
| CC1CCN(Cc2c(C(=O)N/N=C/c3ccc(C(F)(F)F)cc3)nnn2-c2nonc2N)CC1 | inactive |
| COc1ccc([C@H]2CC(=O)C=C(c3cccc(C(F)(F)F)c3)C2)cc1 | inconclusive: 18.3 µM [inhibitor, single point] |
| CC(=O)Nc1ncc(Cc2cc(Cl)ccc2Cl)s1 | inactive |
| CCOC(=O)c1c(C)n(C)c2ccc(OC(=O)c3ccc(N4C(=O)CCC4=O)cc3)cc12 | inactive |
| N/C(=N/S(=O)(=O)c1ccccc1)c1cccc([N+](=O)[O-])c1 | inconclusive: 29.1 µM [inhibitor, single point] |
| COC(=O)[C@@H]1C[C@@]2(O)[C@H](O)[C@H](O)[C@H](O)C[C@H]2N1Cc1ccc(-c2ccccc2)cc1 | inactive |
| C/C(=N\NC(=O)c1c(Br)c(C)nn1C)c1cccc(NC(=O)C2CCC2)c1 | inactive |
| N#Cc1ccc(-c2csc(NC(=O)/C=C/c3cccs3)n2)cc1 | inconclusive: 23.1 µM [inhibitor, partial curve] |
| COc1ccc(C2=Nn3c(nnc3-c3ccccc3F)SC2)cc1OC1CCCC1 | inconclusive: 3.66 µM [activator, partial curve] |
| Cc1ccc(S(=O)(=O)N(C)C)cc1NC(=O)COC(=O)/C(=C/c1ccc(F)cc1)c1cccs1 | inconclusive: 16.4 µM [inhibitor, single point] |
| CCN(CC)C(=O)c1sc(NC(=O)Cc2ccc(OC)cc2)c(C#N)c1C | inconclusive: 29.1 µM [inhibitor, single point] |
| CC(=O)NCC(=O)N(C)C(C(=O)Nc1ccc(C(C)C)cc1)c1ccccc1 (centres undefined) | inactive |
| COc1ccc(NC(=S)N(CCCN2CCN(C)CC2)Cc2cccs2)cc1 | inactive |
| CCOC(=O)CSc1nc2cc(C(F)(F)F)cnc2n1C | inactive |
| C=C(C)CN=c1scc(C)n1/N=C/c1ccco1 | inactive |
| N#CC(c1nc2ccccc2nc1N1CCOCC1)S(=O)(=O)c1ccccc1 (centres undefined) | inconclusive: 20.6 µM [inhibitor, single point] |
| CCC(=O)NC(=S)Nc1ccc(N2CCOCC2)cc1 | inconclusive: 29.1 µM [activator, single point] |
| CC1Cc2cc(S(=O)(=O)N3CCN(c4cccc(Cl)c4)CC3)ccc2N1C(=O)C1CC1 (centres undefined) | inconclusive: 14.6 µM [inhibitor, partial curve, poor fit] |

| SMILES | Potency |
| --- | --- |
| CCCn1c(SCC(N)=O)nc2c(c1=O)C1(CCCC1)Cc1ccccc1-2 | inconclusive: 25.9 µM [inhibitor, partial curve, poor fit] |
| COc1ccc(C)cc1NC(=O)CSCc1ccccc1C | inactive |
| Fc1cccc(Cl)c1/C=N/Nc1ccccn1 | inconclusive: 18.3 µM [activator, partial curve] |
| COc1ccc(CNC(=S)Nc2ccc(F)c(Cl)c2)cc1OC | inconclusive: 20.6 µM [inhibitor, single point] |
| CCN(CC)S(=O)(=O)c1ccc(NC2c3ccccc3C(=O)N2Cc2ccco2)cc1 (centres undefined) | inconclusive: 18.4 µM [inhibitor, partial curve] |
| COc1ccc(-c2nc(NC(=O)CSc3nnc4ccccn34)ns2)cc1 | inconclusive: 4.61 µM [inhibitor, single point] |
| Cn1c(SCc2ccccc2F)nnc1-c1ccccn1 | inconclusive: 20.6 µM [activator, partial curve] |
| O=C(OCC(=O)c1ccccc1Cl)c1cnccn1 | inactive |
| Cc1cc(C)c(C(=O)/C=C/c2ccc3c(c2)OCO3)c(=O)[nH]1 | inconclusive: 29.1 µM [inhibitor, single point] |
| Cc1[nH]c(C)c(S(=O)(=O)NCC(C)c2ccccc2)c1C(=O)N1CCCCC1 (centres undefined) | inactive |
| CCC(NC(=O)CSc1nnnn1C1CC1)c1ccc(Br)cc1 (centres undefined) | inactive |
| FC(F)(F)c1cc(-c2cccs2)nc2ncnn12 | inconclusive: 23.1 µM [activator, partial curve, poor fit] |
| Cc1ccnc(NC(=O)C2CCN(S(=O)(=O)c3ccc4c(c3)CC(C)N4C(=O)C3CCC3)CC2)c1 (centres undefined) | active: 9.2 µM |
| Nc1nc2c(s1)COc1ccccc1-2 | inconclusive: 18.3 µM [activator, single point] |
| O=S(=O)(Nc1ccc(-c2ccc3nncn3n2)cc1)c1cccc(F)c1 | inconclusive: 20.6 µM [activator, single point] |
| CC(C)CC(NS(=O)(=O)c1cc(C(=O)O)ccc1Cl)C(=O)O (centres undefined) | inactive |
| Cc1ccc(Nc2nnc(SCC(=O)Nc3ncc(S(=O)(=O)c4ccc([N+](=O)[O-])cc4)s3)s2)cc1 | inconclusive: 23.1 µM [activator, single point] |
| COC(=O)c1cc(C(=O)N2CCN(c3cccc(Cl)c3)CC2)cc([N+](=O)[O-])c1 | inconclusive: 9.2 µM [inhibitor, partial curve] |
| Cc1cc(Cl)ccc1C(=O)C1CCCN(C(=O)c2n[nH]c3c2CCCC3)C1 (centres undefined) | inconclusive: 16.4 µM [inhibitor, partial curve, poor fit] |
| Fc1ccc(/C=N/Nc2ncnc3nc[nH]c23)cc1F | inconclusive: 14.6 µM [activator, partial curve] |
| CC(C)Cc1nnc(NC(=O)CCC(=O)NCCc2ccccc2)s1 | inconclusive: 18.3 µM [activator, single point] |
| CC(C)(C)OC(=O)C[C@@H]1C/C=C\C[C@@H](CC(=O)N(CCO)Cc2ccccc2)C(=O)N[C@H](Cc2ccccc2)COC1=O | inconclusive: 23.1 µM [inhibitor, single point] |

A few values from above.
Value for CC1CCN(Cc2c(C(=O)N/N=C/c3ccc(C(F)(F)F)cc3)nnn2-c2nonc2N)CC1 under Potency: inactive
Value for Cc1ccnc(NC(=O)C2CCN(S(=O)(=O)c3ccc4c(c3)CC(C)N4C(=O)C3CCC3)CC2)c1 (centres undefined) under Potency: active: 9.2 µM
